# Laboratory results as given in PubChem BioAssay (Tox21).
# Protein sequences, listed by entry. Tags and fused reporters are not part of them. Lines headed by an entry give the natural chain unless they say otherwise; changes in a name come on top.
# UniProt P11229: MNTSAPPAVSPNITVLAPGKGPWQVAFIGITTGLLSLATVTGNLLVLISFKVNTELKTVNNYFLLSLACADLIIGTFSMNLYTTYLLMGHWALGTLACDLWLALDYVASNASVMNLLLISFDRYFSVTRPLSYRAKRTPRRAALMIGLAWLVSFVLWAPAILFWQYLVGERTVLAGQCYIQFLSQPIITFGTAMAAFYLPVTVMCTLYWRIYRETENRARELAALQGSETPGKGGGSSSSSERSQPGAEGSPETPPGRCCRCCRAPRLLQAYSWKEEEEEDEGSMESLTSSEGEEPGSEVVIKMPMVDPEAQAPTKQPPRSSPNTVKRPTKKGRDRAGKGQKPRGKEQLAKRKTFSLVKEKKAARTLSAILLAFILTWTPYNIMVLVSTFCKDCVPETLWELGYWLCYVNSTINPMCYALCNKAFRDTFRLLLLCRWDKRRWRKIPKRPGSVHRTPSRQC
# UniProt P14416, whole entry, looked up: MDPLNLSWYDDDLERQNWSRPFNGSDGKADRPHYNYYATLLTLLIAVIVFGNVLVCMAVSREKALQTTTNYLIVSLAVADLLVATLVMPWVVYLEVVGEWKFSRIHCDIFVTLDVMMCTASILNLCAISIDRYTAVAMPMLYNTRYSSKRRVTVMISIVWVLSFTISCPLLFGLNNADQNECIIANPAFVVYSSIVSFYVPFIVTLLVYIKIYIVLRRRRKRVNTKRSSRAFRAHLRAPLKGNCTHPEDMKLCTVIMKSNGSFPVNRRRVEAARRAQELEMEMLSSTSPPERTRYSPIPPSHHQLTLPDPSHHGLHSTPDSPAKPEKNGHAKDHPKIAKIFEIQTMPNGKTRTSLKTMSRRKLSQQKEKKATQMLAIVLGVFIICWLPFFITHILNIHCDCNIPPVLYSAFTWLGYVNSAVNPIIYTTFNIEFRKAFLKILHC
# Values joined by “and” are separate entries in the source; they are usually repeats but may differ in a detail not shown here. Identical values can stand only once. The shares of active, inactive and inconclusive entries below differ from those in the screen. For some assays here: A potency beside an inconclusive call is a rough fit, not a confirmed value. Some compounds were tested as several samples or in several runs, with calls that do not always agree. Active and inactive are the calls of the source. Unless noted, calls follow the shape of the full dose curve.
# Columns and labels:
# [1] = Nuclear factor erythroid 2-related factor 2/antioxidant responsive element (Nrf2/ARE) small molecule agonists: luciferase reporter gene qHTS assay in human keratinocytes (AID 1919969); conditions: KeratinoSens HaCaT ARE-luciferase, luminescence, 24 h; activity, positive = activation: at 92.4 µM (top of the series); also: nearly all actives have a fitted effect of over 35% in size; as to activity, positive = activation: % is scaled to controls: 0 for no effect and ±100 for the full control effect
# [2] = cAMP Responsive Elements (CRE) small molecule agonists, cell-based qHTS assay (AID 1963590); conditions: CRE-bla HEK293T, beta-lactamase FRET ratio, 3 h; activation: at 92.4 µM (top of the series) unless noted; as to activation: % is scaled to controls: 0 for no effect and ±100 for the full control effect
# Method in brief: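 Cells carrying a CRE-driven beta-lactamase reporter (HEK 293T) are seeded, incubated overnight (18 h), and treated with test compounds for 3 h at 37 C; reporter activity is then detected with a FRET substrate after 2 h at room temperature.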
# [3] = cAMP Responsive Elements (CRE) small molecule antagonists, cell-based qHTS assay (AID 1963591; active = well fitted inhibition curve with a large enough effect in the signal ratio in the repeat runs, not every such curve was filed as active; inconclusive = weak or mixed curves, or effect the other way; the % refers to the signal ratio); conditions: CRE-bla HEK293T, beta-lactamase FRET ratio; activity change, negative = inhibition: at 92.4 µM (top of the series) unless noted
# Method in brief: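 Cells (CRE-bla HEK 293T, DMEM with 10% dialyzed FBS and 25 mM HEPES) are seeded and incubated 18 h. Compounds are added with NKH477 agonist at 0.25 uM final for 3 h, then FRET substrate for 2 h.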
# [4] = molecular target: Muscarinic acetylcholine receptor M1 (Homo sapiens) (UniProt P11229); assay: Cholinergic receptor muscarinic 1 (CHRM1) small molecule agonists, cell-based qHTS assay (AID 1963589); also: nearly all actives have a fitted effect of over 35% in size
# Method in brief: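 Cells were plated and incubated 18 h at 37 C/5% CO2, loaded with calcium dye for 1 h at 37 C, then treated with compounds in DMSO. Fluorescence was recorded kinetically at 1 sec intervals.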
# [5] = molecular target: Beta-2 adrenergic receptor (Homo sapiens) (UniProt P07550); assay: Adrenergic beta2 receptor (ADRB2) small molecule agonists, cell-based qHTS assay (AID 1963593); conditions: CHO-ADRB2 cells, cAMP HTRF, 30 min;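 as to activation: CHO cells stably overexpressing human ADRB2; % is scaled to controls: 0 for no effect and ±100 for the full control effect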
# Method in brief: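 CHO cells stably over-expressing ADRB2 were plated overnight at 37C, then dosed with compounds plus a stimulation mix containing 100uM IBMX and 25uM Ro-20-1724 for 0.5hr at room temperature. cAMP was measured by HTRF competition, 1hr.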
# [6] = molecular target: Muscarinic acetylcholine receptor M1 (Homo sapiens) (UniProt P11229); assay: Cholinergic receptor muscarinic 1 (CHRM1) small molecule antagonists, cell-based qHTS assay (AID 1963588); also: nearly all actives have a fitted effect of over 40% in size
# Method in brief: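 Compounds were tested at 15 concentrations in three independent runs. Dye-loaded CHRM1-CHO cells were exposed 5 min at room temperature before stimulation by acetylcholine added at 50nM. Intracellular calcium was read kinetically on FDSS for 3 min.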
# [7] = molecular target: Beta-2 adrenergic receptor (Homo sapiens) (UniProt P07550); assay: Adrenergic beta2 receptor (ADRB2) small molecule antagonists, cell-based qHTS assay (AID 1963592); conditions: CHO-ADRB2 cells, isoproterenol-stimulated cAMP HTRF ratio, 0.5 h; activity change, negative = inhibition: at 92.4 µM (top of the series) unless noted; also: nearly all actives have a fitted effect of over 50% in size; as to activity change, negative = inhibition: % is scaled to controls: 0 for no effect and ±100 for the full control effect
# Method in brief: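 Assay format: CHO-ADRB2 cells, 18-20hr seeding at 37C/5% CO2, then compound plus 1nM isoproterenol agonist mix for 0.5hr RT. Homogeneous time-resolved fluorescence cAMP detection after 1hr, expressed as 665/615 nm ratio.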
# [8] = molecular target: D(2) dopamine receptor (Homo sapiens) (UniProt P14416); assay: Dopamine D2 receptor (DRD2) small molecule agonists, cell-based qHTS assay (AID 1963594); conditions: HEK293-DRD2 cAMP HTRF, agonist mode, 30 min; activation: at 92.4 µM (top of the series) unless noted; also: nearly all actives have a fitted effect of over 35% in size
# Method in brief: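 HEK293 cells stably expressing DRD2 were cultured 24 h at 37 C, then given Ro20-1724 (0.1 mM final) and compounds for 10 min at room temperature. NKH477 (200nM) was then added for 30 min. cAMP was read by HTRF.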
# [9] = molecular target: D(2) dopamine receptor (Homo sapiens) (UniProt P14416); assay: Dopamine D2 receptor (DRD2) small molecule antagonists, cell-based qHTS assay (AID 1963595; active = well fitted inhibition curve with a large enough effect in the signal ratio in the repeat runs, with a control signal flat; inconclusive = weak or mixed curves, or effect the other way; the % refers to the signal ratio); conditions: HEK293-DRD2 cAMP HTRF antagonist mode; activity change, negative = inhibition: at 92.4 µM (top of the series) unless noted
# Method in brief: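 HEK293 cells stably expressing DRD2, preincubated with 0.1 mM Ro20-1724 and compounds 10 min, were stimulated with 200 nM NKH477 plus 12 nM quinpirole for 30 min at room temperature; cAMP measured by HTRF (665/620 nm).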
# [10] = activation: at 92.4 µM (top of the series) unless noted
# Potency is read from the fitted curve at half-maximal effect.
structure (smiles),measurement,setting,value
C=CC(=O)O[C@H]1C[C@@H]2CC[C@@]1(C)C2(C)C,Potency,[1],inactive
same,Potency,[2],inactive
COc1ccc(-c2coc3cc(O)ccc3c2=O)cc1,Potency,[1],inactive
same,Potency,[2],"inconclusive: 61.1 µM [rising, single point]"
same,Potency,[3],"inconclusive: 61.1 µM [activator, single point]"
CCCCCCCCCCCC(=O)N(C)CC(=O)O,Potency,[1],"inconclusive: 66.4 µM [activator, single point]"
same,Potency,[4],"inconclusive: 0.474 µM [rising, single point]"
same,Potency,[2],"inconclusive: 52.8 µM [fluorescent, partial curve]"
same,Potency,[3],"inconclusive: 59.2 µM [fluorescent, partial curve]"
same,activation,[5]; [10],inconclusive: -18% [at 8.39 µM]
same,activation,[5]; at 92.4 µM (top of the series),inactive: 2.43%
CCCOCCO,Potency,[1],"inconclusive: 129 µM [activator, partial curve, poor fit]"
same,Potency,[6],active: 0.0125 µM
same,Potency,[5]; [10],inactive
O=c1oc2cc(O)ccc2c2oc3cc(O)ccc3c12,Potency,[1],active: 29.4 µM
same,Potency,[2],"inconclusive: 29.4 µM [fluorescent, partial curve]"
same,Potency,[3],"inconclusive: 73.8 µM [activator, single point]"
same,"activity change, negative = inhibition",[7],inconclusive: -23.4%
same,Potency,[5]; [10],"inconclusive: 29.4 µM [inhibitor, full curve, poor fit]"
same,Potency,[8],"inconclusive: 24.4 µM [falling, partial curve, poor fit]"
CCCC(C)C(=O)O (centres undefined),Potency,[1],"inconclusive: 14.7 µM [activator, single point]"
same,Potency,[2],"inconclusive: 41.5 µM [rising, partial curve]"
same,Potency,[3],inactive
same,activation,[5]; [10],inconclusive: 1.37%
c1ccc2c(c1)-c1cccc3c1c-2cc1ccccc13,Potency,[1],active: 23.8 µM and active: 21.7 µM
same,Potency,[3],inconclusive: 26.7 µM [fluorescent]
same,"activity change, negative = inhibition",[3],inconclusive: 13.4%
same,activation,[5]; [10],inconclusive: 28% and inconclusive: 14.6%
same,"activity change, negative = inhibition",[9],inconclusive: -17.6%
O=Nc1ccc(O)cc1,Potency,[1],inactive
same,Potency,[2],inactive
same,Potency,[8],inactive
same,Potency,[9],"inconclusive: 53.2 µM [cytotoxic, partial curve, poor fit]"
c1ccc2c(c1)Oc1ccccc1S2,Potency,[1],"inactive and inconclusive: 27.3 µM [activator, single point]"
same,Potency,[2],"inconclusive: 77 µM [rising, partial curve, poor fit]"
same,Potency,[5]; [10],inactive
CN(CCOc1ccc(CC2SC(=O)NC2=O)cc1)c1ccccn1 (centres undefined),Potency,[1],"inconclusive: 54.2 µM [activator, partial curve, poor fit]"
same,Potency,[3],"inconclusive: 54.2 µM [fluorescent, partial curve]"
same,"activity change, negative = inhibition",[3],inconclusive: 12.5% [at 42.4 µM]
same,activation,[5]; at 42.5 µM (top of the series),inconclusive: 7.18%
same,activation,[5]; at 92.4 µM (top of the series),inconclusive: -37.6%
CN1CCN(c2c(F)cc3c(=O)c(C(=O)O)cn(CCF)c3c2F)CC1,Potency,[1],inactive
same,"activity change, negative = inhibition",[3],inconclusive: -5.59% [at 42.4 µM]
same,"activity change, negative = inhibition",[7],inconclusive: -1.39% [at 42.5 µM]
same,Potency,[5]; [10],"inconclusive: 7.5 µM [falling, full curve]"
Cc1ccc2ccc(Cl)cc2n1,Potency,[1],"inconclusive: 13.3 µM [activator, single point]"
same,Potency,[2],inactive
same,activation,[5]; [10],inconclusive: 8.61% [at 42.5 µM]
C=CC/C=C/C,Potency,[1],inactive
same,Potency,[2],inactive
same,Potency,[7],inactive
same,activation,[5]; [10],inconclusive: -11.4%
same,Potency,[9],inactive
C=C(C)C(=O)OCCOCCOCCOC(=O)C(=C)C,Potency,[1],inconclusive: 61.2 µM [activator]
same,Potency,[3],"inconclusive: 43.3 µM [fluorescent, partial curve, poor fit]"
same,"activity change, negative = inhibition",[3],inconclusive: 20.8%
same,Potency,[5]; [10],"inconclusive: 68.7 µM [inhibitor, single point]"
same,activation,[5]; [10],inconclusive: -32.9%
CC(C)NC(=O)c1ccc(C=O)cc1,Potency,[1],"inconclusive: 18.8 µM [activator, partial curve, poor fit]"
same,Potency,[2],inactive
same,activation,[5]; [10],inconclusive: -28.8% [at 42.5 µM]
C=CN1CCCCCC1=O,Potency,[1],inactive
same,Potency,[2],inconclusive: 68.6 µM [activator]
same,Potency,[5]; [10],inactive
CCCCCCCCCCCCCCCC(=O)OC/C=C(C)/C=C/C=C(C)/C=C/C1=C(C)CCCC1(C)C,Potency,[1],"inconclusive: 54.5 µM [activator, partial curve, poor fit]"
same,Potency,[2],inactive
same,activation,[5]; [10],inconclusive: -14.2%
CC(C)C1CCC(C(=O)N[C@H](Cc2ccccc2)C(=O)O)CC1 (some centres undefined),Potency,[1],"inconclusive: 33.5 µM [activator, single point]"
same,Potency,[3],inactive
same,Potency,[7],"inconclusive: 33.5 µM [inhibitor, single point]"
same,Potency,[5]; [10],inactive
CC(=O)OCC1=C(C(=O)O)N2C(=O)[C@@H](NC(=O)Cc3cccs3)[C@H]2SC1,Potency,[1],inactive
same,Potency,[2],inactive
same,Potency,[5]; [10],inactive
